Results taken from PubChem BioAssay AID2685 (National Center for Advancing Translational Sciences (NCATS), 2010).
The whole screen tested about 320,000 compounds, of which about 2,100 (0.66%) were called active. Inconclusive means that the source gave no clear call. Such entries were picked first, then a sample of the others. Calls come from the whole dose curve; as a rule, active = well fitted inhibition curve with a large enough effect in the signal ratio, with a control signal flat (not every such curve was filed as active); inconclusive = small, poorly fitted or top-dose-only effect, or effect the other way, or a change in a side signal; inactive = flat fitted curve, though single readings scatter; the % refers to the signal ratio. Potencies of inconclusive entries are doubtful fits and often do not repeat.

experiment: qHTS Assay for Lipid Storage Modulators in Drosophila S3 Cells; conditions: BODIPY lipid droplet fluorescence, 18-24 h, cells fed with added oleic acid; lipid storage change, negative = inhibition: at 46.1 µM (top of the series) unless noted
Summary of the method: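 Drosophila S3 cells loaded with oleic acid (400 uM, as added) and compounds at several concentrations; lipid droplets imaged by 488-nm laser-scanning cytometry, 500–530 nm intensity and object ratio to cell channel. Percent activity normalized to 20 uM Triacsin C.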
% is set by controls: 0 for no effect and ±100 for the full control effect; potency is the fitted concentration of half-maximal effect.

SMILES	lipid storage change, negative = inhibition	Potency
O=C(NNc1ccccc1)Nc1ccccc1F	inconclusive: 35.6%	
c1ccc(COc2ccc(OCCn3cncn3)cc2)cc1	inconclusive: -27.5%	
CN(C)S(=O)(=O)c1cccc(NC(=O)COC(=O)c2ccc3c(c2)OCO3)c1	inconclusive: 28.4%	
COc1ccccc1C(=O)NC(=S)/C=C1/N(C)c2ccccc2C1(C)C		inconclusive: 29.1 µM [cytotoxic, single point]
CCOC(=O)Cc1csc(NC(=O)/C=C\c2ccccc2)n1	inconclusive: 1.77%	
COc1ccc(-c2nn(-c3ccccc3)cc2C(=O)N2CCOCC2)cc1	inconclusive: -1.43%	
COc1ccc(S(=O)(=O)N2CCN(C(=O)C3COc4ccccc4O3)CC2)cc1 (centres undefined)	inconclusive: 20.5%	
Cc1ccc(NC(=O)CSCC(=O)N2CCN(C(=O)c3ccco3)CC2)cc1		inconclusive: 6.51 µM [falling, partial curve, poor fit]
Cn1c(SCC(N)=O)nnc1-c1ccc(C(C)(C)C)cc1	inactive: -7.75%	
CCn1nc(CC(=O)Nc2nnc(CC(=O)N3CCCC3)s2)c2ccccc2c1=O	inconclusive: 25.9%	
Cn1c(=O)n(CC(=O)N2CCN(c3nnc(-c4ccccc4)c4ccccc34)CC2)c2ccccc21		inconclusive: 0.116 µM [activator, full curve, poor fit]
O=C(CSc1nnc(-c2ccc3c(c2)OCO3)o1)Nc1ncc(Cl)cc1Cl		inconclusive: 20.6 µM [activator, partial curve, poor fit]
CCCn1nc2cc(C(=O)NCc3ccc(OC(F)(F)F)cc3)ccc2c1OCC	inconclusive: 46.8%	
COc1ccc(-n2cnnc2SCC(=O)N(C)c2ccccc2)cc1	inconclusive: 96%	
O=C(OCC(=O)N1CCc2ccccc21)c1ccc([N+](=O)[O-])cc1	inconclusive: -30%	
CCOCc1nnc(NC(=O)c2cccc(OC)c2)s1	inconclusive: 12.7%	
COc1ccc(NC(=O)CSc2nnc(NC(=O)C3CC3)s2)cc1OC	inconclusive: 43.5%	
COc1cccc(/C=C2\SC(=S)N(CCCC(=O)Nc3ccc(C(=O)O)cc3)C2=O)c1		inconclusive: 6.51 µM [falling, single point]
COc1cccc(OC)c1OCCCOc1ccc(C)cc1Br		inconclusive: 25.9 µM [activator, single point]
OCCC#Cc1c(-c2ccsc2)sc2ccccc12		inconclusive: 1.64 µM [falling, partial curve]
O=C(COc1ccccc1)NC1CCCc2ccccc21 (centres undefined)		inconclusive: 23.1 µM [activator, single point]
COc1ccc(-c2ncncc2-c2ccc(OC)c(OC)c2)c(O)c1	inconclusive: 10.8%	
COc1cc(NC(=O)c2ccccc2)c(OC)cc1NC(=O)Cc1ccc(C)cc1		inconclusive: 29.1 µM [falling, single point]
C=CCNC(=O)C1CC(=O)N(c2ccc(OCC(=O)Nc3ccc(Cl)cc3)cc2)C1 (centres undefined)	inconclusive: 5.4%	
C/C(=N\OCc1ccc(C#N)cc1)c1ccc(S(=O)(=O)N(C)C)cc1		inconclusive: 29.1 µM [falling, single point]

Entries listed so far containing two or more sulfur atoms, in the order listed:
SMILES	lipid storage change, negative = inhibition	Potency
COc1ccc(NC(=O)CSc2nnc(NC(=O)C3CC3)s2)cc1OC	inconclusive: 43.5%	
COc1cccc(/C=C2\SC(=S)N(CCCC(=O)Nc3ccc(C(=O)O)cc3)C2=O)c1		inconclusive: 6.51 µM [falling, single point]
OCCC#Cc1c(-c2ccsc2)sc2ccccc12		inconclusive: 1.64 µM [falling, partial curve]

Remaining list, next part:

SMILES	lipid storage change, negative = inhibition	Potency
Cc1ccc(C)c(OCC(=O)NCC(C)(C)N2CCOCC2)c1		inconclusive: 1.84 µM [activator, partial curve, poor fit]
Cc1cc(-c2ccc(C)c(S(=O)(=O)N3CCN(C(=O)c4ccco4)CC3)c2)on1		inconclusive: 4.11 µM [falling, single point]
CCCCN(C)C(=O)C1CCN(CCCc2ccccc2)CC1	inconclusive: 73.6%	
Cc1cc(NC(=O)COC(=O)CSc2nc3cc(Cl)ccc3n2Cc2ccccc2)no1	inactive: 10.6%	
O=C(Cn1c2c(sc1=O)C1c3ccccc3OCC1CS2)Nc1ccc(Cl)c(Cl)c1 (centres undefined)		inconclusive: 0.116 µM [falling, full curve, poor fit]
COc1ccc(-n2nc3c(c2NC(=O)CCCCl)CSC3)cc1	inconclusive: 19.3%	
C(=N\Nc1nc(-c2ccccc2)cs1)/c1cccnc1	inconclusive: 1.98%	
Cc1ccc(CNC(=O)c2nn(C)c3c2CS(=O)(=O)c2ccccc2-3)cc1	inconclusive: 63.3%	
COc1ccc(Cl)cc1NC(=O)c1cccc(-n2cnnn2)c1	inconclusive	
O=C(N/N=C/c1cc(Br)ccc1OC(=O)c1ccc(Br)cc1)c1ccncc1		inconclusive: 5.17 µM [falling, single point]
COc1ccc2nc(N/C(=N/S(=O)(=O)c3cccs3)c3ccccc3Cl)sc2c1		inconclusive: 2.59 µM [activator, partial curve]
O=c1ccc(-c2ccc(S(=O)(=O)Nc3cccc(Br)c3)o2)n[nH]1		inconclusive: 0.58 µM [activator, single point]
Cc1cc(C(=O)CCC(=O)N2CCN(c3ccccc3)CC2)c(C)s1	inconclusive	
CC(Oc1ccccc1)C(=O)Nc1ccc(S(=O)(=O)N2CCOCC2)cc1 (centres undefined)	inconclusive: 53.1%	
CC1CCCN(CCCNC(=O)CCn2nc(-c3ccccc3)ccc2=O)C1 (centres undefined)	inconclusive: -50.7%	
CC1CC(C)CN(CC(O)COc2ccc3c(c2)CCC3)C1 (centres undefined)		inconclusive: 7.31 µM [falling, partial curve, poor fit]
O=C(NCC(c1ccco1)N1CCc2ccccc21)c1cccc([N+](=O)[O-])c1 (centres undefined)		inconclusive: 3.26 µM [activator, full curve, poor fit]
CC1(c2ccccc2)NC(=O)N(CC(=O)Nc2cc3c(cc2Br)OCCO3)C1=O (centres undefined)	inconclusive	
O=C(COC(=O)c1ccc(Cl)cc1)NC1CCCCCC1	inconclusive: -7.73%	
CC1(C)CC(=O)C2=C(C1)c1c(ccc3ccccc13)NC2c1ccc(OCC(=O)O)cc1 (centres undefined)		inconclusive: 5.8 µM [falling, single point]
COc1ccc2oc(C(=O)OCC(=O)c3ccc4c(c3)OCCO4)c(C)c2c1	inconclusive: -1.03%	
CCn1cnc2cc(NCc3ccc(OC)cc3)ccc21	inconclusive: 3.26%	
COc1cccc(C(=O)N2CCN(C3CCCCC3)CC2)c1	inconclusive: -30.7%	
O=C(CSc1ncnc2nc[nH]c12)N1CCOCC1	inconclusive: 0.13%	
CCOc1ccc(NS(=O)(=O)c2ccc(C(=O)NCC(c3ccc(OC)cc3)N3CCOCC3)cc2)cc1 (centres undefined)		inconclusive: 29.1 µM [cytotoxic, single point]

SMILES	lipid storage change, negative = inhibition	Potency
Cc1ccc(NC(=O)c2sc3ncnc(N4CCN(c5ccccn5)CC4)c3c2C)c(C)c1	inconclusive: -36.9%	
C(=C\c1ccccc1)/CSc1nnc(-c2ccccc2)n1Cc1ccco1		inconclusive: 29.1 µM [falling, single point]
CC(=O)Nc1ccc(S(=O)(=O)N2CCN=C2SCc2ccc(C)cc2)cc1	inconclusive: -81.8%	
Cc1ccc(C(=O)N/C(=C\c2cccc([N+](=O)[O-])c2)C(=O)Nc2cccc(C(=O)O)c2)cc1		inconclusive: 11.6 µM [activator, partial curve]
Cc1cccc(NC(=O)c2ccc3c(c2)OCCO3)n1		inconclusive: 29.1 µM [falling, single point]
CCNC(=O)NC(=O)C(C)OC(=O)c1oc2ccccc2c1CSC1CCCCC1 (centres undefined)	inconclusive: 51%	
CCOCCc1nnc(NC(=O)COC)s1	inconclusive: -24.2%	
COc1cc2c(cc1C1C(C#N)=C(N)OC3=C1C(=O)CC(C)(C)C3)OCO2 (centres undefined)	inconclusive: -44.5%	
CS(=O)(=O)c1ccc(C(=O)Nc2ccc(N3CCOCC3)cc2)c(Cl)c1	inactive: -24.8%	
COc1ccc(/C=C(/C#N)C(=O)NC2CCCCC2)cc1Br	inactive: 8.79%	
CC(=O)Nc1ccc([C@H]2[C@H](C)CC[C@H]3C(=O)N4[C@@H](CC[C@@H](C)[C@@H]4c4ccc(NC(C)=O)cc4)C(=O)N32)cc1	inconclusive: 29.4%	
COc1ccc(-c2cn3nc(C)c(C)nc3n2)cc1OC	inconclusive: -4.64%	
NC(=O)c1cc(-c2ccccc2)sc1NC(=O)Cc1ccc(S(=O)(=O)N2CCOCC2)s1		inconclusive: 3.26 µM [activator, single point]
Cc1csc(NC(=O)c2ccc(OCC3CCCO3)cc2)n1 (centres undefined)	inconclusive: -1.06%	
CCOC(=O)Cc1nnc(NC(=O)CSc2ccc(Cl)cc2)s1	inconclusive: 20.5%	
CCOC(=O)[C@@H]1[C@H]2COc3ccc(Br)cc3[C@@H]2N2C(=O)N(c3ccccc3)C(=O)[C@@]12C	inconclusive: 9.42%	
C[C@@H](C(=O)NCCc1ccccc1F)N1C(=O)N2CCc3c([nH]c4ccccc34)[C@@]2(C)C1=O	inconclusive: -23.1%	
CCOc1nc(-c2ccccc2)ccc1-c1noc(COC)n1		inconclusive: 25.9 µM [falling, single point]
CC12CCCCN1CCCc1c2[nH]c2ccccc12 (centres undefined)	inconclusive: 57.5%	
CN(C)CCCN(C(=O)CCS(=O)(=O)c1ccccc1)c1nc2cc3c(cc2s1)OCO3		inconclusive: 0.366 µM [activator, partial curve, poor fit]
CCOC(=O)c1c(NC(=O)c2cc(-c3ccc(Cl)s3)nc3ccccc23)sc(C(N)=O)c1C	inconclusive: 16.3%	
COc1ccc(NS(=O)(=O)c2ccc(C)c(C(=O)N3CCCCCCC3)c2)cc1	inconclusive: -41.4% [cytotoxic]	
O=C(Nc1ccc(NC(=O)C2CC2)cc1)c1cccs1	inconclusive: -104%	
CCn1ncc([N+](=O)[O-])c1C(=O)N1CCCC1		inconclusive: 1.03 µM [falling, full curve]
